# Measurements as given in paper PMC5476800.
# Protein sequences, listed by entry. Tags and fused reporters are not part of them.
# UniProt Q9Z207: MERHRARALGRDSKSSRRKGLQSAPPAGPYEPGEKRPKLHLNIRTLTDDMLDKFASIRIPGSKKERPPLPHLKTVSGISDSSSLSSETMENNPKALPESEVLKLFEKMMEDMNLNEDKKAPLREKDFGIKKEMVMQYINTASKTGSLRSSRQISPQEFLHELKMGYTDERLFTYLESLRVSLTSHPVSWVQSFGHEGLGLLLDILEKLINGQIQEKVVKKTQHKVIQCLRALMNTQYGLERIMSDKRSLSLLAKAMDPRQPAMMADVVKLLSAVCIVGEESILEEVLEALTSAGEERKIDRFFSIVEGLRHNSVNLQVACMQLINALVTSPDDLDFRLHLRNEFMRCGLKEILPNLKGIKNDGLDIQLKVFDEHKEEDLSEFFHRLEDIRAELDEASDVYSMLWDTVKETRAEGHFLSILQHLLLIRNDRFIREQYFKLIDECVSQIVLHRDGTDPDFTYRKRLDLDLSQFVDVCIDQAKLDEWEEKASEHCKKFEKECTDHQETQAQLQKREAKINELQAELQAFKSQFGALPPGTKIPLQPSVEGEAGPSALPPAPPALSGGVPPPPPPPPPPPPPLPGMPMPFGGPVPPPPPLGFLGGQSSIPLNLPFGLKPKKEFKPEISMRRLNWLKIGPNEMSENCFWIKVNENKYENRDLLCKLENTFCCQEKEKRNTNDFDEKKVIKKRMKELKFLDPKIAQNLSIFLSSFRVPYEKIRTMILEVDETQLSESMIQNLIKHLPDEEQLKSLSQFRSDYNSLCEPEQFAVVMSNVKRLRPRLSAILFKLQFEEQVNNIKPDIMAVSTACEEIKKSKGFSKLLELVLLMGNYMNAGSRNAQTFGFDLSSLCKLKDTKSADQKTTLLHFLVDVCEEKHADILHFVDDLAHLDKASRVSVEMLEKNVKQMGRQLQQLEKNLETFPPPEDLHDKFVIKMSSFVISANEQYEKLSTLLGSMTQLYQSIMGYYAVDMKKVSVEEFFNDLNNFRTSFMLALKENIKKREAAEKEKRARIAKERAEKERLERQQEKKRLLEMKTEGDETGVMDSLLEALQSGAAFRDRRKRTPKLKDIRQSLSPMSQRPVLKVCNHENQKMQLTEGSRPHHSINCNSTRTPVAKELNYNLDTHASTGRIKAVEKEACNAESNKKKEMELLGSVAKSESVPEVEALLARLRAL
# UniProt O70201: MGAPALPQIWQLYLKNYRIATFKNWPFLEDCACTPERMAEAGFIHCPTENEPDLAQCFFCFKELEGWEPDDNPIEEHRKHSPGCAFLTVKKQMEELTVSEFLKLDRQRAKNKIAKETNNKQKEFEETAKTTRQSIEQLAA
# UniProt Q9Z1S0: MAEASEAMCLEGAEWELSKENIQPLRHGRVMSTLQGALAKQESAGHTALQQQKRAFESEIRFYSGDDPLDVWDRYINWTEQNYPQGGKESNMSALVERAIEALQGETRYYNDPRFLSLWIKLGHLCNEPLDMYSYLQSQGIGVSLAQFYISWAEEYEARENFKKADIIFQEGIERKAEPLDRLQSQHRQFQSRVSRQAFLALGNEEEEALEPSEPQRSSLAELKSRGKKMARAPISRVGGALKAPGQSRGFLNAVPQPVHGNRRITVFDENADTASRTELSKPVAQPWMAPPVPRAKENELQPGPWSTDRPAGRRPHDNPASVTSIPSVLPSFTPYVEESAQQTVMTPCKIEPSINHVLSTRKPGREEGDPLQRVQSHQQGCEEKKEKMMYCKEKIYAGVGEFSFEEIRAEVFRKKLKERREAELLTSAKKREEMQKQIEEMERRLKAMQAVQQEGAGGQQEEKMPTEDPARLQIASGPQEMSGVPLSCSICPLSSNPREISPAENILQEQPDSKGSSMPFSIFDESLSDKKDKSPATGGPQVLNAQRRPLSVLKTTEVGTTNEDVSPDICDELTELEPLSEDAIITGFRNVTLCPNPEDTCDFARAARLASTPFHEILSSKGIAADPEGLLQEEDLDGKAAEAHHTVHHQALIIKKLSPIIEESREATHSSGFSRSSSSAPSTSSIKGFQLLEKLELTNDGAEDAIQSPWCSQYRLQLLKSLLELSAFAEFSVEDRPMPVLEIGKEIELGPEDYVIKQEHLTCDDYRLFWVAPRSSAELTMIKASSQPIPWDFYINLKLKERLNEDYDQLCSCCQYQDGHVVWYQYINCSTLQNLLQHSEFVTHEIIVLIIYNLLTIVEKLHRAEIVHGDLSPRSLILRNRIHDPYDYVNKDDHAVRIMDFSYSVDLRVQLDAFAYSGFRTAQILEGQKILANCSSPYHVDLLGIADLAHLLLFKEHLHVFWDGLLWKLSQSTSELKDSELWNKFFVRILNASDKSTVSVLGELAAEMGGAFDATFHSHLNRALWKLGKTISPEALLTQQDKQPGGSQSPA
# Results are given in words; binding and its absence hold for the method and conditions named. Binding seen in cells or lysates may run through a third protein. Some entries that bind do so weakly or less than the wild type.
# Target: Diaph3 (mouse (in brain of Diaph3 transgenic mice)) (UniProt Q9Z207)
# Assay: co-IP; 200 ug of brain (Survivin) or cortical (BubR1) lysate of Diaph3 transgenic mice incubated overnight with 5 ug rabbit anti-Diaph3 antibody in lysis buffer (50 mM Tris HCl pH 7.5, 150 mM NaCl, 1 mM EDTA, 1% Triton X-100); protein A agarose beads 2 h at 4 C; washed three times in PBS; western blot; control without antibody
row,Substance,binding
1,Survivin (from UniProt O70201 1-140),binds
2,BubR1 (from UniProt Q9Z1S0 1-1052),binds
